PubChem BioAssay (EPA / NIEHS)
Inconclusive means that the source gave no clear call. Such entries were picked first, then a sample of the others. A potency beside an inconclusive call is a rough fit, not a confirmed value. Activity calls are given as the source filed them. Rule for the calls: active = hit-call score of the fitted dose curve at least 0.9, where 1 is the maximum; inconclusive = response in the unintended direction; inactive = score below 0.9.

The chains behind the UniProt entries cited, without tags or fusion partners. Where a name states a change or a piece, a line headed by the entry shows the natural chain unless it says otherwise.
UniProt P21709: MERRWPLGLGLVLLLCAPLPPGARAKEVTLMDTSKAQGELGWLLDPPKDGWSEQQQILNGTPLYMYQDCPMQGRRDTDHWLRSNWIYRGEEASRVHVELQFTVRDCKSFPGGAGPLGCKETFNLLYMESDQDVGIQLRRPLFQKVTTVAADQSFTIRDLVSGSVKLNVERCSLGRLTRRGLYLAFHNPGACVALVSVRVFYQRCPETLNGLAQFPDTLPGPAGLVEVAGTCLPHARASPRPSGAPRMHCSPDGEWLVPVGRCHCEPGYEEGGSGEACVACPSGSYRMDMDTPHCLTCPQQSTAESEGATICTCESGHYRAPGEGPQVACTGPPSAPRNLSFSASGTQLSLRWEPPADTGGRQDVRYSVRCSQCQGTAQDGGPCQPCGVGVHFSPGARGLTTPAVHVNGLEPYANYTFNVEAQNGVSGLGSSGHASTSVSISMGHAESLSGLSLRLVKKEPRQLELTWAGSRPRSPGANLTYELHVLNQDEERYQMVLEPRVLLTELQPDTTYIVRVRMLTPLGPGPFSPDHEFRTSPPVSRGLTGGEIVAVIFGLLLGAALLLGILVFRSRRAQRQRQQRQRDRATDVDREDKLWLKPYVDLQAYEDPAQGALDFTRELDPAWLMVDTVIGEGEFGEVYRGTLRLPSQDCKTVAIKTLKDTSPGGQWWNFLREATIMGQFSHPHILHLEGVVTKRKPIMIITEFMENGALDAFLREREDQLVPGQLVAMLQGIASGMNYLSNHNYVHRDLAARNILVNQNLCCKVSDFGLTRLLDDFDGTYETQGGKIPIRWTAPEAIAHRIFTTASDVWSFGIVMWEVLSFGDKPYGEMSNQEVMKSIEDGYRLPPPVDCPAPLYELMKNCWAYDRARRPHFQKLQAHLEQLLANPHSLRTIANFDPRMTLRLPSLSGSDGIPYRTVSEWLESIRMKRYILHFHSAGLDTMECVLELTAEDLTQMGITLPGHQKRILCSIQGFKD

biological target: human Ephrin type-A Receptor 1 (EphA1), EPHA1 (gene 2041) (UniProt P21709); experiment: NVS_ENZ_hEphA1: NovaScreen (NVS) Enzymatic Assay for human Ephrin type-A Receptor 1 (EphA1) (AID 2283158);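 note: activity is signal loss versus DMSO meaning EphA1 kinase inhibition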
In short: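 Fluorescent substrate conversion, resolved by mobility-shift separation, measured 1 hour post-dosing using recombinant enzyme; signal loss relative to DMSO baseline. Single-concentration duplicates at 25 uM preceded singleton concentration series topping at 50 uM.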

**Q.** `Cc1ccc(C)o1` was tested. Which AC50 did it give?
**A.** inconclusive: 6.48 µM

**Q.** How did the AC50 turn out when `Cc1cc(C)nc(NS(=O)(=O)c2ccc(N)cc2)n1` was run?
**A.** inconclusive: 0.148 µM

**Q.** For `C=CCOC(=O)C(=C)C`, which AC50 is on record?
**A.** inconclusive: 7.57 µM

**Q.** With `CN(C)CCCN1c2ccccc2Sc2ccc(Cl)cc21` as the molecule, how does the outcome read?
**A.** inactive

**Q.** For `CC(=O)CC(C)C`, which AC50 is on record?
**A.** inconclusive: 8.88 µM

**Q.** With `CC(C)OB(OC(C)C)OC(C)C` as the molecule, how does the outcome read?
**A.** inactive

**Q.** `CC(C)CC(=O)CC(C)CC(C)C` (stereo unspecified) was tested. Which AC50 did it give?
**A.** inconclusive: 0.0896 µM

**Q.** How did the outcome turn out when `Cc1ccccc1S(N)(=O)=O` was run?
**A.** inactive

**Q.** For `O=C1OC2(c3cc(Br)c(O)c(Br)c3Oc3c2cc(Br)c(O)c3Br)c2c(Cl)c(Cl)c(Cl)c(Cl)c21`, which AC50 is on record?
**A.** inconclusive: 4.22 µM

**Q.** How did the AC50 turn out when `CC(=O)C1C(=O)C=C(C)OC1=O` (stereo unspecified) was run?
**A.** active: 39.1 µM

**Q.** How did the outcome turn out when `CCOc1ccc(NC(N)=O)cc1` was run?
**A.** inactive

**Q.** How did the AC50 turn out when `CC(=O)C(C)=O` was run?
**A.** inconclusive: 0.098 µM

**Q.** Which outcome does the source give for `CCCCc1nc2cccnc2n1Cc1ccc(-c2ccccc2-c2nnn[nH]2)cc1` here?
**A.** inactive

**Q.** For `CC(C)C=O`, which AC50 is on record?
**A.** inconclusive: 25 µM

**Q.** Which AC50 does the source give for `C=CCCCCCCCCC=O` here?
**A.** inconclusive: 25 µM

**Q.** With `C=C(C)C(=O)OCC1CCCO1` (stereo unspecified) as the molecule, how does the AC50 read?
**A.** inconclusive: 4.96 µM

**Q.** `CC(C)CCCC(C)CCO` (stereo unspecified) was tested. Which AC50 did it give?
**A.** inconclusive: 6.77 µM

**Q.** For `C1CCOC1`, which AC50 is on record?
**A.** inconclusive: 5.12 µM

**Q.** For `O=C(Oc1ccccc1)c1ccccc1C(=O)Oc1ccccc1`, which outcome is on record?
**A.** inactive

**Q.** Which AC50 does the source give for `CCCC=O` here?
**A.** inconclusive: 25 µM

**Q.** Which AC50 does the source give for `CCOC(C)=O` here?
**A.** inconclusive: 6.21 µM

**Q.** With `CCCC[C@H]1CN(CC2CCOCC2)C(=O)OC12CCN(C1(C)CCN(C(=O)c3c(C)ncnc3C)CC1)CC2` as the molecule, how does the AC50 read?
**A.** inconclusive: 22.5 µM

**Q.** With `CCCCCC1CCCC(=O)O1` (stereo unspecified) as the molecule, how does the AC50 read?
**A.** inconclusive: 25 µM

**Q.** How did the AC50 turn out when `Cc1[nH]nc2c1N=C(c1ccccc1Cl)c1cc([N+](=O)[O-])ccc1N2` was run?
**A.** active: 8.96 µM

**Q.** `Cc1oc(-c2ccccc2)nc1CCOc1cccc2c1ccn2CCC(=O)O` was tested. Which outcome did it give?
**A.** inactive

**Q.** `Cc1ncc([N+](=O)[O-])n1CCO` was tested. Which AC50 did it give?
**A.** active: 11.7 µM

**Q.** With `C=C(C)C(=O)OCCOCCOCCOCCOC(=O)C(=C)C` as the molecule, how does the AC50 read?
**A.** active: 35.3 µM

**Q.** With `CCCCCCCCCC[N+](C)(C)[O-]` as the molecule, how does the outcome read?
**A.** inactive

**Q.** With `COC(=O)OC` as the molecule, how does the outcome read?
**A.** inactive

**Q.** With `C=CC(=O)OCCCCCCCC(C)C` as the molecule, how does the outcome read?
**A.** inactive

**Q.** `CC(C)(N=C=O)c1cccc(C(C)(C)N=C=O)c1` was tested. Which outcome did it give?
**A.** inactive
